Assay results: patent publication US20240390508A1 (priority 2021, published 2024)

Assays:
[1] = general procedure: Fmoc solid-phase peptide synthesis; Fmoc-Gly-Alko resin; Fmoc-AA/HATU/DIEA (4.2/4/8 equivalents); settings: whole synthesis, scale 0.05 mmol
[2] = general procedure: Fmoc solid-phase peptide synthesis; Fmoc-βAla-Alko resin; Fmoc-AA/HATU/DIEA (4.2/4/8 equivalents); settings: whole synthesis, scale 0.05 mmol
[3] = general procedure: Fmoc solid-phase peptide synthesis; Sieber amide resin; Fmoc-AA/HATU/DIEA (4.2/4/8 equivalents); settings: whole synthesis, scale 50 μmol

4-pentynoyl-AEEA-Arg-Arg-Arg-Gly-OH
crude mass [1]: 34.0 mg

BCN-AEEA-Arg-Arg-Arg-(3 Åla-OH
isolated mass [2]: 55.3 mg

BCN-Gly-Gly-Gly-Glu-Glu-Glu-Ser-Ser-Cys(tBuS)—NH2
isolated mass [3]: 35.4 mg
